Laboratory results taken from PubChem BioAssay AID256 (DTP/NCI, 2004).
The list is a part of this screen's results and no random one: it gathers tests that were run many times, whatever their T/C, doses with no T/C, and many T/C values between a quarter and a half above the control. Further doses and runs are listed elsewhere. T/C gives the treated animals as a percentage of the vehicle group. Some entries give survivors of the animals treated and no T/C: the source files T/C as zero there, which appears to mark a toxic dose or a test without result, not a measured value. Some survivor counts are full or nearly so, which does not show that the dose was tolerated: the source hardly ever lists a survival T/C far under the control, and the zero likely stands for such cases as well. Survivors were counted at the toxicity check, usually on the fifth day, unless a day is given; later deaths do not show. Schedule codes are those of the source, read here as Q, the interval in days (D) or hours (H), X, the number of doses. Where survival is the endpoint, the PubChem record calls one and a half times the control and up active, and a quarter to a half above the control has no call in these data; cut-offs in other NCI protocols can differ. Some entries were tested several times; the results are listed from low to high. Some T/C values are followed by the survivors on the day toxicity was checked, most often the fifth; where none is given, no animal had died by that day.

Test system: CD2F1 mice, L1210 leukemia ip, survival T/C
Assay: NCI In Vivo Anticancer Drug Screen. Data for tumor model L1210 Leukemia (intraperitoneal) in CD2F1 (CDF1) mice
Details: higher T/C = longer survival
In short: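 Activity against a transplanted murine tumor was judged by comparing the compound group with a vehicle group. The outcome in the treated animals was divided by that in the controls.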

[1] = T/C endpoint: mean survival time, dose: 5.0 mg/kg/injection, schedule: Q01DX009 (ip), vehicle: saline
[2] = T/C endpoint: median survival time, dose: 6.0 mg/kg/injection, schedule: Q01DX009 (ip), vehicle: saline + Tween-80 + alcohol

In the case of `COc1cccc2c1C(=O)c1c(O)c3c(c(O)c1C2=O)C[C@@](O)(/C(C)=N/NC(=O)c1ccccc1)C[C@@H]3OC1CC(N)C(O)C(C)O1` (some centres undefined), the T/C (T/C endpoint: mean survival time, dose: 1.8 mg/kg/injection, schedule: Q01DX009 (ip), vehicle: saline) is reported as 135 % of control, the T/C [1] is reported as 134 % of control and the T/C (T/C endpoint: mean survival time, dose: 8.0 mg/kg/injection, schedule: Q01DX009 (ip), vehicle: water) is reported as 131 % of control. For the same compound, the T/C (T/C endpoint: mean survival time, dose: 8.0 mg/kg/injection, schedule: Q04DX003 (ip), vehicle: saline) was 148 % of control, the T/C (T/C endpoint: mean survival time, dose: 13.3 mg/kg/injection, schedule: Q04DX003 (ip), vehicle: saline) was 136 % of control and the survivor count (T/C endpoint: mean survival time, dose: 16.0 mg/kg/injection, schedule: Q01DX009 (ip), vehicle: water) was 6 of 6. For the same compound, the survivor count (T/C endpoint: mean survival time, dose: 16.0 mg/kg/injection, schedule: Q04DX003 (ip), vehicle: water) was 6 of 6, the T/C (T/C endpoint: median survival time, dose: 1.0 mg/kg/injection, schedule: Q03HX024 (ip), vehicle: water) was 130 % of control and the T/C (T/C endpoint: median survival time, dose: 2.0 mg/kg/injection, schedule: Q03HX008 (ip), vehicle: water) was 130 % of control. For the same compound, the T/C (T/C endpoint: median survival time, dose: 2.0 mg/kg/injection, schedule: Q03HX016 (ip), vehicle: water) was 129 % of control, the T/C (T/C endpoint: median survival time, dose: 2.0 mg/kg/injection, schedule: Q03HX024 (ip), vehicle: water) was 140 % of control [9 of 10 alive] and the T/C (T/C endpoint: median survival time, dose: 4.0 mg/kg/injection, schedule: Q01DX009 (ip), vehicle: water) was 127 % of control. For the same compound, the T/C (T/C endpoint: median survival time, dose: 4.0 mg/kg/injection, schedule: Q03HX008 (ip), vehicle: water) was 132 % of control, the T/C (T/C endpoint: median survival time, dose: 4.0 mg/kg/injection, schedule: Q04DX003 (ip), vehicle: water) was 126 % of control and the T/C (T/C endpoint: median survival time, dose: 8.0 mg/kg/injection, schedule: Q01DX009 (ip), vehicle: water) was 141 % of control. For the same compound, the T/C (T/C endpoint: median survival time, dose: 8.0 mg/kg/injection, schedule: Q04DX003 (ip), vehicle: water) was 130 and 145 % of control, the T/C (T/C endpoint: median survival time, dose: 16.0 mg/kg/injection, schedule: Q01DX001 (ip), vehicle: water) was 132 % of control and the survivor count (T/C endpoint: median survival time, dose: 16.0 mg/kg/injection, schedule: Q01DX009 (ip), vehicle: water) was 9 of 10. The T/C (T/C endpoint: median survival time, dose: 16.0 mg/kg/injection, schedule: Q04DX003 (ip), vehicle: water) was 147 % of control, the T/C (T/C endpoint: median survival time, dose: 16.0 mg/kg/injection, schedule: Q08DX002 (ip), vehicle: water) was 133 % of control and the survivor count (T/C endpoint: median survival time, dose: 32.0 mg/kg/injection, schedule: Q01DX009 (oral), vehicle: water) was 5 of 10. For the same compound, the T/C (T/C endpoint: median survival time, dose: 32.0 mg/kg/injection, schedule: Q08DX002 (ip), vehicle: water) was 147 % of control [9 of 10 alive] and the survivor count (T/C endpoint: median survival time, dose: 64.0 mg/kg/injection, schedule: Q01DX009 (oral), vehicle: water) was 6 of 10.

`COC(=O)[C@@]12OC[C@]34[C@H]([C@@H](O)[C@@H]1O)[C@@]1(C)CC(=O)C(OC(=O)CC(=O)OC5=C(C)[C@@H]6C[C@H]7OC(=O)[C@H](OC(=O)/C=C(\C)C(C)C)[C@H]8[C@]9(C(=O)OC)OC[C@]78[C@H]([C@@H](O)[C@@H]9O)[C@@]6(C)CC5=O)=C(C)[C@@H]1C[C@H]3OC(=O)[C@H](OC(=O)/C=C(\C)C(C)C)[C@@H]24` was tested, and the T/C (T/C endpoint: median survival time, dose: 3.0 mg/kg/injection, schedule: Q01DX009 (ip), vehicle: saline + Tween-80 + alcohol) was 128 and 136 % of control, the T/C [2] was 142 % of control [4 of 6 alive] and the survivor count [2] was 0 of 6.

For `CC(=O)NNC(=O)CC(O)(c1ccccc1)c1ccccc1`, the survivor count (T/C endpoint: mean survival time, dose: 400.0 mg/kg/injection, schedule: Q04DX002 (ip), vehicle: saline with Tween-80) was 3 of 3.

In the case of `COc1ccc2c(c1)CNC1c3cc(OC)c(O)cc3CC21` (centres undefined), the survivor count (T/C endpoint: mean survival time, dose: 100.0 mg/kg/injection, schedule: Q04DX003 (ip), vehicle: saline with Tween-80) is reported as 2 of 6 and the survivor count (T/C endpoint: mean survival time, dose: 150.0 mg/kg/injection, schedule: Q04DX003 (ip), vehicle: saline with Tween-80) is reported as 1 of 6.

With `CC12CCC(=O)C(I)(I)C1=CCCC2=O` (centres undefined) the survivor count (T/C endpoint: mean survival time, dose: 200.0 mg/kg/injection, schedule: Q01DX001 (ip), vehicle: saline with Tween-80) was 6 of 6 and the survivor count (T/C endpoint: mean survival time, dose: 400.0 mg/kg/injection, schedule: Q01DX001 (ip), vehicle: saline with Tween-80) was 5 of 6.

For `O=[As](O)(O)c1cccc2ccccc12`, the survivor count [1] was 1 of 3.

For `Cc1cc(=O)cc(CC(=O)C(=O)O)o1`, the survivor count (T/C endpoint: mean survival time, dose: 200.0 mg/kg/injection, schedule: Q01DX009 (ip), vehicle: saline sonified) was 3 of 6 and the survivor count (T/C endpoint: mean survival time, dose: 400.0 mg/kg/injection, schedule: Q01DX009 (ip), vehicle: saline sonified) was 4 of 6.
